Data as given in the supplement of paper PMC10849652.
Some of the results follow.

Amino acid sequences for entries named in this document (tags omitted). A change or cut given only in a name is not applied to a line headed by its entry.
UniProt Q9UNE7: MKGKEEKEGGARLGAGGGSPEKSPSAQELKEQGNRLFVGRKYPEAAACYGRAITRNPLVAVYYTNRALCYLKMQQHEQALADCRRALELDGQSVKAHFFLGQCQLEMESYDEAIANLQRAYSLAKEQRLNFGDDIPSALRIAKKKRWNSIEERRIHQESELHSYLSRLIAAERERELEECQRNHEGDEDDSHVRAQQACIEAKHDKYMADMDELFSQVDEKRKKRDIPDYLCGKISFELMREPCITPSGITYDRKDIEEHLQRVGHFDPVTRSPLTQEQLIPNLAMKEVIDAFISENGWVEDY
UniProt Q5T5C0: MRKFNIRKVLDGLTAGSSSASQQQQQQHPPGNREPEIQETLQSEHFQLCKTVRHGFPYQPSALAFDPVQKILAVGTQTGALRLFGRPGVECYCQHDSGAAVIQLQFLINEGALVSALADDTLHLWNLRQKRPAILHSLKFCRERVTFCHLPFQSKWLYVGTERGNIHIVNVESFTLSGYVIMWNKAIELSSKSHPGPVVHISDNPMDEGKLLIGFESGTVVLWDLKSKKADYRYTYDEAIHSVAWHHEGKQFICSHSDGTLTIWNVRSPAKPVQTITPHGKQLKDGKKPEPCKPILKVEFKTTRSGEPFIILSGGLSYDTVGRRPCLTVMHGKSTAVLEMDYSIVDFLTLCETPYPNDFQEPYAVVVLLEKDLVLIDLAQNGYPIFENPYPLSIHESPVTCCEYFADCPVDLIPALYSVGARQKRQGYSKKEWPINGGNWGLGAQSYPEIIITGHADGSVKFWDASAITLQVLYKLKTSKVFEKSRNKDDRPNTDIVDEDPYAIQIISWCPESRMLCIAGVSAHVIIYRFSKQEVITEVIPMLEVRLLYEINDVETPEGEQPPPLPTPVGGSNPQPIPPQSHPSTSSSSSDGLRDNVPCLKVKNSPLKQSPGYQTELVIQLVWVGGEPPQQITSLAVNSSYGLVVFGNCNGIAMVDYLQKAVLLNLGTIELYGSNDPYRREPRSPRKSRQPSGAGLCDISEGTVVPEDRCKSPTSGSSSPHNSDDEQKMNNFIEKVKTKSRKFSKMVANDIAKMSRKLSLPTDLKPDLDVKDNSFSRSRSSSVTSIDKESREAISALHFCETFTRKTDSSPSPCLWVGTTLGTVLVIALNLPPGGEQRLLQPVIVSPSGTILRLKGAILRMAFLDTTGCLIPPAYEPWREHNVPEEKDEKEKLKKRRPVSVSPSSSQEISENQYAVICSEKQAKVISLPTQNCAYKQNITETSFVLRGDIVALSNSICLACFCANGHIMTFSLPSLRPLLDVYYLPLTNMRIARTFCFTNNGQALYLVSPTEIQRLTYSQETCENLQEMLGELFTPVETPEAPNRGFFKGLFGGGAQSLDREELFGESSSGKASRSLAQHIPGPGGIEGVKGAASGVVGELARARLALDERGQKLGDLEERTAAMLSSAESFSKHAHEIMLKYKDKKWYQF
UniProt Q9NRP7: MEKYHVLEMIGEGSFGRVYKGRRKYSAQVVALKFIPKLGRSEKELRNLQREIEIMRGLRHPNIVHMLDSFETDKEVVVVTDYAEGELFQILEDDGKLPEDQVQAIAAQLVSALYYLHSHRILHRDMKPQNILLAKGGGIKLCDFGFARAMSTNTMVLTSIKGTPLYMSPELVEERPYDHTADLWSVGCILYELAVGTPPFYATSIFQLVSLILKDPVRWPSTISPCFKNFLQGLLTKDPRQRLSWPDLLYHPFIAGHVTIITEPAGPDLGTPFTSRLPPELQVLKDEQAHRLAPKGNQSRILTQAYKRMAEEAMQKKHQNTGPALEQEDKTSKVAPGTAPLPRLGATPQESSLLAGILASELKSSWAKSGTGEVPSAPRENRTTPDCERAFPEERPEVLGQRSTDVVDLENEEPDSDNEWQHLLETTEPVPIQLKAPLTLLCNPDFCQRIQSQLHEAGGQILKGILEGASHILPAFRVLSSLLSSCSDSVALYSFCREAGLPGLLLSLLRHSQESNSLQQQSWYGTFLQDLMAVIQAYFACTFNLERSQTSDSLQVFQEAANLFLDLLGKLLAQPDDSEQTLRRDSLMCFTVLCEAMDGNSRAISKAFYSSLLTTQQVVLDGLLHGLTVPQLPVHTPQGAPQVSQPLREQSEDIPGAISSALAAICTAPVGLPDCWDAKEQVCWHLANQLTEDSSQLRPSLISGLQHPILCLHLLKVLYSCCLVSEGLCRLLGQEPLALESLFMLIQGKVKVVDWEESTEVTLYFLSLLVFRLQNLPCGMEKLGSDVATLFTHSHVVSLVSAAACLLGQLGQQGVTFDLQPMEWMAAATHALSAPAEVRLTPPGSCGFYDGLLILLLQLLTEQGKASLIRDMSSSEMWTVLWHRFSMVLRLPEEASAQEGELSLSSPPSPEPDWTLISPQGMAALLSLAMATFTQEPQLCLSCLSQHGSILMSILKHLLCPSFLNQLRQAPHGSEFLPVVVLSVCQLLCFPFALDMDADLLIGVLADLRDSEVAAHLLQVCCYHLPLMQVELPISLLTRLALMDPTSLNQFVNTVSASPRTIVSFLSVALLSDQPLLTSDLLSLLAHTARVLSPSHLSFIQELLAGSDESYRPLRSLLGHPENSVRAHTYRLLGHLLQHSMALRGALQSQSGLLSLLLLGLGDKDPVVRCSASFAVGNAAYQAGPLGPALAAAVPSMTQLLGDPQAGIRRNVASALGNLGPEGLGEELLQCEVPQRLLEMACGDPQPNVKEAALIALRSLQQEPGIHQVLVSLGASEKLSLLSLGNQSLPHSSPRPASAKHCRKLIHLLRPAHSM
UniProt Q9Y3F4: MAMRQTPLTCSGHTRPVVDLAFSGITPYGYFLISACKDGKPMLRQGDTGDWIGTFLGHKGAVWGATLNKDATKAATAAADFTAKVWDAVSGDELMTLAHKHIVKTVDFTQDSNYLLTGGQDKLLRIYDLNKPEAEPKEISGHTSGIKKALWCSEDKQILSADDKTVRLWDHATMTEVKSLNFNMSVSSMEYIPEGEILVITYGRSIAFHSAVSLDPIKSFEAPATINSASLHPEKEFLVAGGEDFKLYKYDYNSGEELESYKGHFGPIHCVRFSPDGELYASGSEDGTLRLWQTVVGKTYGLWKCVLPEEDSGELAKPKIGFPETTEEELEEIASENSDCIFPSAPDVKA
UniProt Q93045: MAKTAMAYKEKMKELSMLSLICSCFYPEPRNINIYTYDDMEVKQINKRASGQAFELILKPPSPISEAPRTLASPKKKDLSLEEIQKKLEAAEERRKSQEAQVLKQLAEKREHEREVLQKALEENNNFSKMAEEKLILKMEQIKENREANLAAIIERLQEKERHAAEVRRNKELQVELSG
UniProt P16949: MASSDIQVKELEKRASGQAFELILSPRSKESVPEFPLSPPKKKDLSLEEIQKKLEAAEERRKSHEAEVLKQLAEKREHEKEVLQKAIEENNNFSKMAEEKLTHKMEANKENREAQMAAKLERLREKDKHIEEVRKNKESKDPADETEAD
UniProt Q96C24: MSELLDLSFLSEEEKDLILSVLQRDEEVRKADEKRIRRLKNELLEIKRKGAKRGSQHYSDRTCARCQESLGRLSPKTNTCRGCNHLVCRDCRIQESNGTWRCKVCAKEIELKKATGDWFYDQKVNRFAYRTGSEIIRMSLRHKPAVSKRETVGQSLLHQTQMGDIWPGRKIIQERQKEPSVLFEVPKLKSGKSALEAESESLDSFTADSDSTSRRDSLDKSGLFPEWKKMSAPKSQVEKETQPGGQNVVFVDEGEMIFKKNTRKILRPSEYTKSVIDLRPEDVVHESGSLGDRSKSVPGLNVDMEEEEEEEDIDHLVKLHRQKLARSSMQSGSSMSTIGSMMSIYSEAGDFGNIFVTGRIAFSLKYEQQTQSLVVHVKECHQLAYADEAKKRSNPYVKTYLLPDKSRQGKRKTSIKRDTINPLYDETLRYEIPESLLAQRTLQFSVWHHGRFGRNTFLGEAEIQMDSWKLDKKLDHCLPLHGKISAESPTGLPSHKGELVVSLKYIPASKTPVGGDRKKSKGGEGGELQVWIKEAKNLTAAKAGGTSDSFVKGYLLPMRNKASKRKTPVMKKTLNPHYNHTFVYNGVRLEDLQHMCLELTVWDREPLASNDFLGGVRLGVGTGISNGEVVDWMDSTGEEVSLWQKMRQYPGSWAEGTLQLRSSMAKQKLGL
UniProt Q15833: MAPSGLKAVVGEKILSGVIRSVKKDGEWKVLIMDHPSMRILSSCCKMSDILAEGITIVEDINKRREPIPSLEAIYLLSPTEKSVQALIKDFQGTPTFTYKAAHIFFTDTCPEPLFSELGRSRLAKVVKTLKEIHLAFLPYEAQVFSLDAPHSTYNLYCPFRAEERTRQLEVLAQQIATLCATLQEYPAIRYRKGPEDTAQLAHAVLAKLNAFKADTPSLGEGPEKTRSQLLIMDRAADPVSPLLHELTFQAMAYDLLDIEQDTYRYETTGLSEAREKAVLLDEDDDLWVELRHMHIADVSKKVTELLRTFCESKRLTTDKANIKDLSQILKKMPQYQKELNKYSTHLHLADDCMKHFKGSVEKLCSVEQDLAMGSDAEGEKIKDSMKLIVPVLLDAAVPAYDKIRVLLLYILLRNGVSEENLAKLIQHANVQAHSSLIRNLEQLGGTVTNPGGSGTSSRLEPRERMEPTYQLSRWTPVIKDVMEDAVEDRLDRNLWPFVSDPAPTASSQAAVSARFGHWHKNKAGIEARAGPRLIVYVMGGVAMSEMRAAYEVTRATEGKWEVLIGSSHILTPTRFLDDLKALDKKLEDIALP
UniProt Q7RTN6: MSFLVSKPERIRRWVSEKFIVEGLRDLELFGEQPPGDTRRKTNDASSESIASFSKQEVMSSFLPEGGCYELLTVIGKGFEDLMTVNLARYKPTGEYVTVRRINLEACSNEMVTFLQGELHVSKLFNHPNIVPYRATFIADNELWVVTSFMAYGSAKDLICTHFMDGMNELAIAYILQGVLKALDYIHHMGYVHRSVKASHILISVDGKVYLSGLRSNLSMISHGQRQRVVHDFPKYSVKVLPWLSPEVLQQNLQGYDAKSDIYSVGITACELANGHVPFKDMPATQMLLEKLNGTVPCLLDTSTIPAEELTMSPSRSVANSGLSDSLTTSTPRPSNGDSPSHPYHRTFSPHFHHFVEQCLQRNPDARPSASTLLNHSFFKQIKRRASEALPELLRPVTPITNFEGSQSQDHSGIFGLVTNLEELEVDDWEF
UniProt O00268, whole entry, looked up: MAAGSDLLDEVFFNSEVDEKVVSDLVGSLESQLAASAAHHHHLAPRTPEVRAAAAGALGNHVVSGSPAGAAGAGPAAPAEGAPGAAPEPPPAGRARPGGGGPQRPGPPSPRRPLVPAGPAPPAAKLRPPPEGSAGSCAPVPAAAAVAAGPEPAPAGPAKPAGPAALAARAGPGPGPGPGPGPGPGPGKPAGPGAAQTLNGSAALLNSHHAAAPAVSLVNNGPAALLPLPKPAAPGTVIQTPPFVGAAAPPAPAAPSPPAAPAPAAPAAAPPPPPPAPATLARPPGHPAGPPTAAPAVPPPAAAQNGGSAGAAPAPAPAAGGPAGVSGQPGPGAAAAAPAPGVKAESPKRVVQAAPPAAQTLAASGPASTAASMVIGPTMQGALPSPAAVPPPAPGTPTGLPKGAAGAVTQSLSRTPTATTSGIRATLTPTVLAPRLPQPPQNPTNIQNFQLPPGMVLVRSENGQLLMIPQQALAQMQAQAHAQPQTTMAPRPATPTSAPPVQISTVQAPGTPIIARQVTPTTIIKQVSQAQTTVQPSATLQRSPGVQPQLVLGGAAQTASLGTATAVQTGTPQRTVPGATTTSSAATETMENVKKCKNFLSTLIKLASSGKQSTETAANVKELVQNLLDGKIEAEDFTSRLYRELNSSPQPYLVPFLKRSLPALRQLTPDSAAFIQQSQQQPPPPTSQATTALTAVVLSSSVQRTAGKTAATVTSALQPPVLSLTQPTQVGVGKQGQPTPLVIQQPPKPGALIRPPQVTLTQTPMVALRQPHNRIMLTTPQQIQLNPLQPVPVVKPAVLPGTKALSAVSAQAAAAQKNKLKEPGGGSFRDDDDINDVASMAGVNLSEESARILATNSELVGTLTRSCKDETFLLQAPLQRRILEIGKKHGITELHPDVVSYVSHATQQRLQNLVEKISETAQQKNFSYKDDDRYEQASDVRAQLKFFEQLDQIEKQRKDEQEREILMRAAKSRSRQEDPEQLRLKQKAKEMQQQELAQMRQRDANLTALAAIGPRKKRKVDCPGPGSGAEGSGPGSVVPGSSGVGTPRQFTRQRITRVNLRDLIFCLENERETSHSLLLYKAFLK
UniProt P57105: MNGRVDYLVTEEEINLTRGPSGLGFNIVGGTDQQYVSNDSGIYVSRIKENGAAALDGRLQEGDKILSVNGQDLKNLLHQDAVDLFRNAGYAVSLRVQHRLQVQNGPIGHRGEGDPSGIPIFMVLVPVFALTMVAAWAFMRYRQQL
UniProt Q16514: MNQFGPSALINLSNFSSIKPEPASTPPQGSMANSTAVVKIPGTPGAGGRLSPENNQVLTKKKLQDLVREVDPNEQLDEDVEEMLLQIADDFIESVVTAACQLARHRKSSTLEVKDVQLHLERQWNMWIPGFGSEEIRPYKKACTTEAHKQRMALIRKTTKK

What was measured:
Test in all cases: log2 fold change, soluble protein after heating vs DMSO (PISA); higher = thermal stabilisation; K562 lysate, 10 uM; active = over 0.2 and 3.5 SD of the protein, either way, in both replicates (recomputed)
vemurafenib = compound: CCCS(=O)(=O)Nc1ccc(F)c(C(=O)c2c[nH]c3ncc(-c4ccc(Cl)cc4)cc23)c1F [vemurafenib]
Outline: (§1)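 Soluble protein was defined as the supernatant remaining after 21,000xg for 90 min, following pooling of heated aliquots and adjustment to 0.5% NP-40 at 4°C. Before that, crude K562 extract at 1 mg/mL protein in PBS pH 7.4 with 1 mM MgCl2 was treated with 10 μM compound for 30 min and heated for 3 min across 48°C-58°C. Quantification used TMTpro 16plex LC-MS/MS with channel sums equalised, and values are log-two fold changes in thermal stability relative to solvent controls from duplicates.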

[1] = compound: CCCS(=O)(=O)Nc1ccc(F)c(C(=O)c2c[nH]c3ncc(Cl)cc23)c1F
Outline: as §1

barasertib = compound: CCN(CCCOc1ccc2c(Nc3cc(CC(=O)Nc4cccc(F)c4)[nH]n3)ncnc2c1)CCOP(=O)(O)O [barasertib]
Outline: as §1

[2] = compound: CC[C@@H]1C(=O)N(C)c2cnc(Nc3ccc(C(=O)NC4CCN(C)CC4)cc3OC)nc2N1C1CCCC1
Outline: as §1

volasertib = compound: CC[C@@H]1C(=O)N(C)c2cnc(Nc3ccc(C(=O)N[C@H]4CC[C@H](N5CCN(CC6CC6)CC5)CC4)cc3OC)nc2N1C(C)C [volasertib]
Outline: as §1

[3] = compound: CCn1c(C(=O)N(C2CC2)C2CC2)cc2c3c(ncn3C)c(Nc3cc(C)n(C)n3)nc21
Outline: as §1

[4] = compound: CCn1cc(-c2ccnc3[nH]c(-c4cccc(CN(C)C)c4)cc23)c(-c2ccc(NC(=O)N(C)C)cc2)n1
Outline: as §1

[5] = compound: CN1CCC(CNc2ccc3ncc(-c4cccc(OC(F)(F)F)c4)n3n2)CC1
Outline: as §1

saracatinib = compound: CN1CCN(CCOc2cc(OC3CCOCC3)c3c(Nc4c(Cl)ccc5c4OCO5)ncnc3c2)CC1 [saracatinib]
Outline: as §1

sotrastaurin = compound: CN1CCN(c2nc(C3=C(c4c[nH]c5ccccc45)C(=O)NC3=O)c3ccccc3n2)CC1 [sotrastaurin]
Outline: as §1

Measured: log2 fold change

STRIP1 (UniProt Q5VSL9)
inactive: vemurafenib 0.018 | [1] -0.002 | barasertib 0.032 | [2] -0.005 | volasertib -0.008 | [3] 0.02 | [4] -0.009 | [5] -0.015 | saracatinib -0.011 | sotrastaurin -0.003

SYNJ2BP-COX16, A0A087WYV9
inactive: vemurafenib 0.037 | [1] -0.073 | barasertib -0.008 | [2] 0.015 | volasertib -0.026 | [3] -0.031 | [4] 0.093 | [5] -0.105 | saracatinib -0.011 | sotrastaurin 0.012

STX4 (UniProt Q12846)
inactive: vemurafenib -0.057 | [1] -0.016 | barasertib -0.053 | [2] -0.006 | volasertib 0.014 | [3] 0.014 | [4] 0.087 | [5] 0.014 | saracatinib 0.024 | sotrastaurin 0.018

STUB1 (UniProt Q9UNE7)
inactive: vemurafenib 0.01 | [1] 0.02 | barasertib -0.007 | [2] -0.072 | volasertib -0.051 | [3] 0.018 | [4] -0.015 | [5] -0.03 | saracatinib 0.006 | sotrastaurin 0.004

STXBP5 (UniProt Q5T5C0)
inactive: vemurafenib 0.03 | [1] -0.012 | barasertib 0.007 | [2] 0.029 | volasertib 0.011 | [3] 0.009 | [4] -0.072 | [5] 0.01 | saracatinib 0.016 | sotrastaurin -0.027

STX6 (UniProt O43752)
inactive: vemurafenib -0.053 | [1] 0.011 | barasertib -0.01 | [2] -0.005 | volasertib -0.006 | [3] 0.004 | [4] 0.016 | [5] -0.049 | saracatinib 0.002 | sotrastaurin 0.007

SYVN1 (UniProt Q86TM6)
inactive: vemurafenib 0.034 | [1] -0.006 | barasertib 0.05 | [2] 0.014 | volasertib 0.019 | [3] 0.018 | [4] 0.023 | [5] -0.034 | saracatinib 0.018 | sotrastaurin -0.017

SYNE1 (UniProt Q8NF91)
inactive: vemurafenib 0.235 | [1] -0.062 | barasertib 0.013 | [2] 0.248 | volasertib 0.033 | [3] -0.3 | [4] -0.065 | [5] -0.137 | saracatinib 0.035 | sotrastaurin -0.045

STK36 (UniProt Q9NRP7)
inactive: vemurafenib 0.188 | [1] 0.038 | barasertib -0.073 | [2] 0.302 | volasertib 0.01 | [3] -0.445 | [4] -0.532 | [5] 0.442 | saracatinib 0.077 | sotrastaurin -0.072

STOML2 (UniProt Q9UJZ1)
inactive: vemurafenib 0.026 | [1] 0.009 | barasertib 0.115 | [2] 0.043 | volasertib 0.033 | [3] -0.015 | [4] 0.111 | [5] -0.047 | saracatinib -0.01 | sotrastaurin -0.002

TAF6 isoform 3 (UniProt P49848)
inactive: vemurafenib 0.015 | [1] -0.116 | barasertib -0.022 | [2] 0.118 | volasertib 0.002 | [3] 0.015 | [4] -0.052 | [5] -0.022 | saracatinib -0.061 | sotrastaurin 0.098

Quoted from above (two entries):
STUB1 (UniProt Q9UNE7)
inactive: vemurafenib 0.01 | [1] 0.02 | barasertib -0.007 | [2] -0.072 | volasertib -0.051 | [3] 0.018 | [4] -0.015 | [5] -0.03 | saracatinib 0.006 | sotrastaurin 0.004

STXBP5 (UniProt Q5T5C0)
inactive: vemurafenib 0.03 | [1] -0.012 | barasertib 0.007 | [2] 0.029 | volasertib 0.011 | [3] 0.009 | [4] -0.072 | [5] 0.01 | saracatinib 0.016 | sotrastaurin -0.027

The listing continues.

TAB1 (UniProt Q15750)
inactive: vemurafenib -0.048 | [1] -0.004 | barasertib 0.049 | [2] -0.035 | volasertib -0.032 | [3] 0.024 | [4] -0.009 | [5] 0.005 | saracatinib 0.007 | sotrastaurin 0

STRAP isoform 2 (UniProt Q9Y3F4)
inactive: vemurafenib 0.011 | [1] -0.001 | barasertib -0.013 | [2] 0.018 | volasertib 0.018 | [3] -0.023 | [4] 0.002 | [5] -0.001 | saracatinib -0.011 | sotrastaurin -0.01

STMN2 isoform 2 (UniProt Q93045)
inactive: vemurafenib 0.024 | [1] -0.065 | barasertib -0.042 | [2] 0.017 | volasertib 0.079 | [3] 0.004 | [4] 0.07 | [5] -0.077 | saracatinib -0.055 | sotrastaurin -0.007

STMN1 (UniProt P16949)
inactive: vemurafenib -0.004 | [1] -0.019 | barasertib 0.005 | [2] 0.049 | volasertib 0.051 | [3] -0.031 | [4] 0.011 | [5] -0.029 | saracatinib -0.016 | sotrastaurin 0.02

SYTL4 (UniProt Q96C24)
inactive: vemurafenib -0.015 | [1] -0.007 | barasertib -0.032 | [2] 0.083 | volasertib 0.01 | [3] 0.066 | [4] -0.074 | [5] -0.07 | saracatinib -0.002 | sotrastaurin -0.009

STXBP2 (UniProt Q15833)
inactive: vemurafenib 0.006 | [1] 0.008 | barasertib 0.007 | [2] -0.052 | volasertib -0.054 | [3] 0.06 | [4] 0.002 | [5] -0.046 | saracatinib 0.007 | sotrastaurin 0.008

STX10 (UniProt O60499)
inactive: vemurafenib 0.128 | [1] 0.008 | barasertib 0.01 | [2] 0.021 | volasertib -0.033 | [3] -0.013 | [4] 0.122 | [5] -0.04 | saracatinib -0.028 | sotrastaurin 0.016

STK39 (UniProt Q9UEW8)
inactive: vemurafenib 0.002 | [1] 0.01 | barasertib 0.012 | [2] -0.046 | volasertib -0.048 | [3] 0.001 | [4] -0.013 | [5] -0.027 | saracatinib -0.002 | sotrastaurin 0.02

STRADA (UniProt Q7RTN6)
inactive: vemurafenib -0.01 | [1] 0.093 | barasertib -0.029 | [2] 0.044 | volasertib -0.011 | [3] -0.03 | [4] -0.024 | [5] 0.034 | saracatinib -0.009 | sotrastaurin -0.039

SUPT6H (UniProt Q7KZ85)
inactive: vemurafenib 0.062 | [1] 0.03 | barasertib 0.091 | [2] 0.064 | volasertib -0.04 | [3] 0.056 | [4] -0.055 | [5] 0.015 | saracatinib -0.028 | sotrastaurin 0.008

TAF4 (UniProt O00268)
inactive: vemurafenib -0.139 | [1] 0.044 | barasertib 0.159 | [2] 0.061 | volasertib 0.015 | [3] -0.033 | saracatinib -0.005 | sotrastaurin 0.007

SYNJ2BP (UniProt P57105)
inactive: vemurafenib 0.081 | [1] 0.063 | barasertib 0.072 | [2] 0.094 | volasertib -0.022 | [3] 0.05 | saracatinib 0.074 | sotrastaurin 0.035

TAF12 (UniProt Q16514)
inactive: vemurafenib -0.017 | [1] -0.001 | barasertib -0.086 | [2] 0.025 | volasertib 0.017 | [3] 0.008 | [4] 0.06 | [5] -0.003 | saracatinib -0.019 | sotrastaurin -0.001

STN1 (UniProt Q9H668)
inactive: vemurafenib 0.047 | [1] -0.389 | barasertib 0.114 | [2] -0.071 | volasertib -0.068 | [3] -0.016 | [4] -0.179 | [5] 0.31 | sotrastaurin -0.025

SUB1 (UniProt P53999)
inactive: vemurafenib 0.007 | [1] 0.001 | barasertib -0.044 | [2] 0.027 | volasertib 0.025 | [3] 0.002 | [4] 0.075 | [5] 0.075 | saracatinib -0.014 | sotrastaurin -0.038

STX5 (UniProt Q13190)
inactive: vemurafenib 0.097 | [1] -0.015 | barasertib 0.064 | [2] 0.03 | volasertib -0.077 | [3] 0.034 | [4] -0.049 | [5] -0.124 | saracatinib 0.081 | sotrastaurin 0.017

SUGT1 isoform 2 (UniProt Q9Y2Z0)
inactive: vemurafenib -0.026 | [1] -0.026 | barasertib -0.246 | [2] 0.079 | volasertib -0.04 | [3] 0.08 | saracatinib 0.072 | sotrastaurin -0.104
